{
  "source": "PubChem BioAssay AID463183",
  "about": "(Sanford-Burnham Center for Chemical Genomics, 2010)",
  "note": "The list shows a part of the results. Shown are side measurements of this screen, not its main read-out; they come without a call. The list favours compounds with an active or inconclusive main result.",
  "data": [
    {"experiment": "blockers of oleate-driven lipid droplets in liver cells – imaging, AML12 mouse hepatocytes, single concentration, high-content, confirmation (AID 463183);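 further: cells counted after overnight compound exposure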", "settings": "BODIPY lipid droplet imaging, measured here: cell count, cytotoxicity, at 5.2 µM, droplets induced with 100 µM oleic acid", "units": {"cell count": "cells"}, "values": [
      {"smiles": "CCOC(=O)c1ccc(NC(=O)CSc2nc3c(c(=O)n2CC)SC(C)C3)cc1", "note": "(centres undefined)", "cell count": 1570},
      {"smiles": "CCOc1ccc(CCNC(=O)Nc2cccc(OC)c2)cc1OCC", "cell count": 1620},
      {"smiles": "C=C(C)Cn1c(N2CCC(Cc3ccccc3)CC2)nc2c1c(=O)[nH]c(=O)n2C", "cell count": 1640},
      {"smiles": "CCCCN(C(=O)CCC(=O)Nc1cc(C)on1)C(C(=O)NC1CCCC1)c1ccc(OCC)cc1", "note": "(centres undefined)", "cell count": 1620},
      {"smiles": "COc1ccc2nc(N=Nc3c(O)ccc4ccccc34)sc2c1", "cell count": 1480},
      {"smiles": "COc1ccccc1NC(=O)C1CCN(C(=O)NCc2ccccc2)CC1", "cell count": 1650},
      {"smiles": "COC(=O)c1ccc(C2=NOC(C)(c3sc(-c4ccc(Cl)cc4)nc3C)C2)cc1", "note": "(centres undefined)", "cell count": 1560},
      {"smiles": "COc1ccc(-c2nc3c(c4nnc(SC(C)C(=O)Nc5ccc(C)cc5)n24)COC(C)(C)C3)cc1", "note": "(centres undefined)", "cell count": 1640},
      {"smiles": "COc1ccc(NC(=O)Cc2c(C)n(C(=O)c3ccc(Cl)cc3)c3ccc(OC)cc23)cc1", "cell count": 1570},
      {"smiles": "OC(COc1ccc2cc(Br)ccc2c1)Cn1ccnc1", "note": "(centres undefined)", "cell count": 1600},
      {"smiles": "CCOc1ccc(CN(C)C(=O)CNC(=O)c2ccc3ccccc3c2)cc1OC", "cell count": 1570},
      {"smiles": "Cc1ccc(NC(=O)Cc2ccc3c(c2)CCCC3)cc1C", "cell count": 1520},
      {"smiles": "COc1ccc(NS(=O)(=O)c2ccc(NC(=S)NCC3CCCO3)cc2)cc1", "note": "(centres undefined)", "cell count": 1640},
      {"smiles": "CCCN(CCC)c1ccc(CC(=O)NC(C)Cc2ccccc2)cc1", "note": "(centres undefined)", "cell count": 1560},
      {"smiles": "CCC(C(=O)NCCc1ccccc1OC)n1nc(C)c2c(C)n(-c3ccccc3)nc2c1=O", "note": "(centres undefined)", "cell count": 1620},
      {"smiles": "CC1CCCCN1Cc1c(O)ccc2c(=O)c(-c3ccccc3)coc12", "note": "(centres undefined)", "cell count": 1550},
      {"smiles": "Cc1ccc([N+](=O)[O-])cc1NC(=O)C(C)Sc1nnc(C)n1CC1CCCO1", "note": "(centres undefined)", "cell count": 1610},
      {"smiles": "C=CCOc1ccc(/C=N/NC(=O)c2cc3c(OC)cc(OC)cc3[nH]2)cc1", "cell count": 1760},
      {"smiles": "CCOC(=O)c1ccc(NC(=O)CSc2nc3c(c(=O)n2-c2ccccc2OC)SCC3)cc1", "cell count": 1680},
      {"smiles": "CCCC1(c2ccccc2)NC(=O)N(CC(=O)Nc2cc(C)ccc2OC)C1=O", "note": "(centres undefined)", "cell count": 1610},
      {"smiles": "CCCN1C(=O)/C(=C\\C=C2\\N(CC)c3ccccc3C2(C)C)SC1=S", "cell count": 1610},
      {"smiles": "Cc1cc(C)c(C(=O)NC2CCCc3c2cnn3-c2cccc(C)c2C)o1", "note": "(centres undefined)", "cell count": 1620},
      {"smiles": "COc1ccc(CCNC(=O)Cc2cccc(C(F)(F)F)c2)cc1OC", "cell count": 1710},
      {"smiles": "CC(NC(=O)[C@@H](C)NC(=O)[C@@H]1Cc2ccccc2CN1C(=O)OC(C)(C)C)c1ccccc1", "note": "(some centres undefined)", "cell count": 1610},
      {"smiles": "COc1ccc(NC(=O)CSc2nc3ccccc3nc2N2CCCC2)cc1Cl", "cell count": 1610},
      {"smiles": "C=C(C)[C@@H]1CC[C@]2(C(=O)O)CC[C@]3(C)C(CCC4[C@@]5(C)CC[C@H](O)C(C)(C)C5CC[C@]43C)C12", "note": "(some centres undefined)", "cell count": 1470},
      {"smiles": "CC(C)(C)C(=O)Cn1c(=O)n(CC2CCCO2)c(=O)c2ccccc21", "note": "(centres undefined)", "cell count": 1640},
      {"smiles": "CCC(C)(C)NC(=O)C(c1ccc(C)cc1)N(CC1CCCO1)C(=O)CCC(=O)Nc1ccccn1", "note": "(centres undefined)", "cell count": 1610},
      {"smiles": "CCN(CC(=O)Nc1ccccc1C(F)(F)F)C(=O)c1cc(-c2cccs2)nn1-c1ccccc1", "cell count": 1660},
      {"smiles": "CCOc1ccc(CCNC(=O)CCS(=O)(=O)c2ccc(C)cc2)cc1OCC", "cell count": 1610},
      {"smiles": "CCOc1ccc2nc(NC(=O)CSc3nc4ccccc4c(=O)n3Cc3ccco3)sc2c1", "cell count": 1520},
      {"smiles": "Cc1cccc(NC(=O)[C@H](C)NC(=O)[C@@H]2Cc3ccccc3CN2C(=O)OC(C)(C)C)c1", "cell count": 1580},
      {"smiles": "COc1ccc(OC)c(NC(=O)c2cc3oc4ccccc4c3cc2O)c1", "cell count": 1580},
      {"smiles": "CCOC(=O)N1CCN(C(=O)CSCC(=O)Nc2nc(-c3ccc(-c4ccccc4)cc3)cs2)CC1", "cell count": 1470},
      {"smiles": "Cc1ccc(OCC(=O)NCc2ccc3c(c2)OCO3)c([N+](=O)[O-])n1", "cell count": 1650},
      {"smiles": "CCOc1ccc(CCNC(=O)CCc2nnc3ccc(N4CCCCC4)nn23)cc1OCC", "cell count": 1540},
      {"smiles": "CCOc1ccccc1NC(=O)CSCC(=O)Nc1ccccc1", "cell count": 1590},
      {"smiles": "Cc1ccc(/C=C/C(=O)NCC2COc3ccccc3O2)o1", "note": "(centres undefined)", "cell count": 1640},
      {"smiles": "CCCCn1c(SCC(=O)Nc2cc(C(F)(F)F)cc(C(F)(F)F)c2)nnc1C(CC)N(C)C", "note": "(centres undefined)", "cell count": 1600}
    ]}
  ]
}
